No constants are given. Whether binding was seen depends on the method and setting. For some of these results: Binding seen in cells or lysates may run through a third protein. Tags and fused reporters may be left off the sequences shown. Some binding calls cover weakened binding; strength is not graded here.
T1: FLAG-GIPC1 (UniProt O14908)
T1 sequence: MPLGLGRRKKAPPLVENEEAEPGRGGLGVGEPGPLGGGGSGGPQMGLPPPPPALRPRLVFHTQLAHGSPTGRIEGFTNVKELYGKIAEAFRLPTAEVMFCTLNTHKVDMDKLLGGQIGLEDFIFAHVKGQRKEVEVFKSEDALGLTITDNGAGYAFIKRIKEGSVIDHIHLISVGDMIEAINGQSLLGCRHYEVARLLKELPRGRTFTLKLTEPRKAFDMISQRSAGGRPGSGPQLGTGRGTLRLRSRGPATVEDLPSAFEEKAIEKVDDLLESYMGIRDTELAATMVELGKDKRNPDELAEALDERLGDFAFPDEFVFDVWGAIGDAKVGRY

By UniProt entry, the sequences of proteins in these tests, tags left out. Residues count along the entry.
UniProt Q9Y4D7, residues 47-1925: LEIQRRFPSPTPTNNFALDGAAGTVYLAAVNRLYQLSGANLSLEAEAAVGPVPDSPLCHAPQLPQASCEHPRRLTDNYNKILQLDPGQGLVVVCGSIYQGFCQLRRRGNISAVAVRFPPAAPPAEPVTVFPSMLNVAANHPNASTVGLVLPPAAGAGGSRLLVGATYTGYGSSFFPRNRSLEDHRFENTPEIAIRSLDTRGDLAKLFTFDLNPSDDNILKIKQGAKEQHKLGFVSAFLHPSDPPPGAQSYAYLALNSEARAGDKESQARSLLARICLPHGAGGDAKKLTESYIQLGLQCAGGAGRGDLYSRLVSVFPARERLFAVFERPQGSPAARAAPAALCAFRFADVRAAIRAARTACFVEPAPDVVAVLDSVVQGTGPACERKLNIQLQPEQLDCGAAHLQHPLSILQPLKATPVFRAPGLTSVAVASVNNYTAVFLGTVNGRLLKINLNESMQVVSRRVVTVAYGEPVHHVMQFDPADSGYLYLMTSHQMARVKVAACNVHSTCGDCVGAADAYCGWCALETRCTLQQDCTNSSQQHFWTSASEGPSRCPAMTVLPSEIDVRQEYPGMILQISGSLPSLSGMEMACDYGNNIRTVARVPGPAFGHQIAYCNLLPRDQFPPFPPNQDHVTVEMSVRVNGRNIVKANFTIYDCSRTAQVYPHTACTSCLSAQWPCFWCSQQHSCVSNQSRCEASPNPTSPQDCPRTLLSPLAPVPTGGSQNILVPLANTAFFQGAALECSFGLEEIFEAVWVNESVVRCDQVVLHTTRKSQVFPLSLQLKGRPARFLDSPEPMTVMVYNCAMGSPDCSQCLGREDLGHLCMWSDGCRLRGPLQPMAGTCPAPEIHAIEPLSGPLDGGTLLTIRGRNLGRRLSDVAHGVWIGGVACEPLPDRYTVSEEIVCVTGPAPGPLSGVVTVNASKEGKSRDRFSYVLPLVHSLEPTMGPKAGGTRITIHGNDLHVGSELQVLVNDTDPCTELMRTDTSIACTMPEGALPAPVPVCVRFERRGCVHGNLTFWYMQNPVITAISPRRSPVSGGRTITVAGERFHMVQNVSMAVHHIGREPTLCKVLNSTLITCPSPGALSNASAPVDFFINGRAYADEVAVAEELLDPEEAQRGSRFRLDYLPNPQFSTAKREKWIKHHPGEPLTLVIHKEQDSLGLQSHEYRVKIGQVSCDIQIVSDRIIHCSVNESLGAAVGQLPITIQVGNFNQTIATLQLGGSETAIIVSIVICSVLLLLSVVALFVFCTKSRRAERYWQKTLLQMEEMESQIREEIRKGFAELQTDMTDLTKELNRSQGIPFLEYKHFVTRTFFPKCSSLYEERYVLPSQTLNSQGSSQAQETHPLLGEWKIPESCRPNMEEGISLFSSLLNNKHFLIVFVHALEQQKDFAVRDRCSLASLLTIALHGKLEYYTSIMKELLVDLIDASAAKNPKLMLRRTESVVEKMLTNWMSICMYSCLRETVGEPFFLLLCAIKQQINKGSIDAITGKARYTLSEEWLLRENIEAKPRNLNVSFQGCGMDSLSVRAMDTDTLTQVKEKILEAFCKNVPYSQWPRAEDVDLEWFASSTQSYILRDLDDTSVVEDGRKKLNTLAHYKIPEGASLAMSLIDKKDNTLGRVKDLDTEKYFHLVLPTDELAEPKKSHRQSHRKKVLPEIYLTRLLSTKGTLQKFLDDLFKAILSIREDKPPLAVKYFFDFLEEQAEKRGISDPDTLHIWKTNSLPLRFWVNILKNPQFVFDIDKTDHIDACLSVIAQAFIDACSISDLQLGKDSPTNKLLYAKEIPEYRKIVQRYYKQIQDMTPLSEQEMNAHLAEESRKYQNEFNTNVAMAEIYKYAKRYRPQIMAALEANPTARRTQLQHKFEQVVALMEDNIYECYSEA
UniProt O15031, residues 20-1838: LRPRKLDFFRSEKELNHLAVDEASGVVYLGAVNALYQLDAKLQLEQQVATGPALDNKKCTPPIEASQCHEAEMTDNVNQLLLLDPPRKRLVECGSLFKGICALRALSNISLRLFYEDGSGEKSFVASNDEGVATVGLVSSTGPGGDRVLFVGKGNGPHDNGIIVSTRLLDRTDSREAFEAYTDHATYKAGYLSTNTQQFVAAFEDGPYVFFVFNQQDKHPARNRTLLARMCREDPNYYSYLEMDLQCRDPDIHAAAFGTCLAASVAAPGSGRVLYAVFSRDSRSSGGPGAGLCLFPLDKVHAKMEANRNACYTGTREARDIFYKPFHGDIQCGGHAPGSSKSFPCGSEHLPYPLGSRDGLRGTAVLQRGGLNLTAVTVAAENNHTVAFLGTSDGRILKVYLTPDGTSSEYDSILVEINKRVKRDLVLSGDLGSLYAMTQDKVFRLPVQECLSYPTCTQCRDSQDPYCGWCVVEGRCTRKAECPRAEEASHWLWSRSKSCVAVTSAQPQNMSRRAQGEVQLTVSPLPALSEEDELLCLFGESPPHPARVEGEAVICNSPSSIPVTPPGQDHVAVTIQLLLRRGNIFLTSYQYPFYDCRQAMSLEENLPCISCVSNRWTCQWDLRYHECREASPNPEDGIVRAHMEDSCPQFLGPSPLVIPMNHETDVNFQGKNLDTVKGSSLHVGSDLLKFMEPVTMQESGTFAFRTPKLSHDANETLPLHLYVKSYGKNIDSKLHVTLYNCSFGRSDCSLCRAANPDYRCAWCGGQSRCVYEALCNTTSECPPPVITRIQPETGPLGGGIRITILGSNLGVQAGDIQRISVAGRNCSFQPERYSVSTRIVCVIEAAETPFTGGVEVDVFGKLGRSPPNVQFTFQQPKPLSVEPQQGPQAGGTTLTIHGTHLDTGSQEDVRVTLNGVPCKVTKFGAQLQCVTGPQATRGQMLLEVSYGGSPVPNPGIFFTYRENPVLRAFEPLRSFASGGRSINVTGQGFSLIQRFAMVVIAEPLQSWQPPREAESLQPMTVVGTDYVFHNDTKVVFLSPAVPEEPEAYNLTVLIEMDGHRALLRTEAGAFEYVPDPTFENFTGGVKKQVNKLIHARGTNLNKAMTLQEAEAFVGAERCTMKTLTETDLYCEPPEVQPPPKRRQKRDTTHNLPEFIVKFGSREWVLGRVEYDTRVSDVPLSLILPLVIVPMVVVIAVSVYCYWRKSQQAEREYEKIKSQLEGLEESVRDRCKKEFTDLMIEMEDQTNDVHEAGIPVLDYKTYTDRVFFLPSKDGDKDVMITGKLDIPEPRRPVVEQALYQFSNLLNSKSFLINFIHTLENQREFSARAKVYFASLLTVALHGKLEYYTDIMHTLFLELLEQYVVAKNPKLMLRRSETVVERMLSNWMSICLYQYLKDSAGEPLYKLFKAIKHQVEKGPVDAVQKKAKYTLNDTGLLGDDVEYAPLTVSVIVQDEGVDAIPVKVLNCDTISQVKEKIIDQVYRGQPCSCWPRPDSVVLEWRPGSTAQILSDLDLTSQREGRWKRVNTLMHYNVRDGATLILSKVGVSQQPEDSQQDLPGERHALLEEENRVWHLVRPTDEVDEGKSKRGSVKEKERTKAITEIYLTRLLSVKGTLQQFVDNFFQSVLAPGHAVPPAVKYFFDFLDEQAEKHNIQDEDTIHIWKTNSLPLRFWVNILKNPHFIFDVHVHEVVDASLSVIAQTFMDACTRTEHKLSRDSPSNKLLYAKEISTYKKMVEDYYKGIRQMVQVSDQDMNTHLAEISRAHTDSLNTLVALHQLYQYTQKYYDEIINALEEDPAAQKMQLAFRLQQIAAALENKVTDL
UniProt Q9ULL4, residues 45-1909: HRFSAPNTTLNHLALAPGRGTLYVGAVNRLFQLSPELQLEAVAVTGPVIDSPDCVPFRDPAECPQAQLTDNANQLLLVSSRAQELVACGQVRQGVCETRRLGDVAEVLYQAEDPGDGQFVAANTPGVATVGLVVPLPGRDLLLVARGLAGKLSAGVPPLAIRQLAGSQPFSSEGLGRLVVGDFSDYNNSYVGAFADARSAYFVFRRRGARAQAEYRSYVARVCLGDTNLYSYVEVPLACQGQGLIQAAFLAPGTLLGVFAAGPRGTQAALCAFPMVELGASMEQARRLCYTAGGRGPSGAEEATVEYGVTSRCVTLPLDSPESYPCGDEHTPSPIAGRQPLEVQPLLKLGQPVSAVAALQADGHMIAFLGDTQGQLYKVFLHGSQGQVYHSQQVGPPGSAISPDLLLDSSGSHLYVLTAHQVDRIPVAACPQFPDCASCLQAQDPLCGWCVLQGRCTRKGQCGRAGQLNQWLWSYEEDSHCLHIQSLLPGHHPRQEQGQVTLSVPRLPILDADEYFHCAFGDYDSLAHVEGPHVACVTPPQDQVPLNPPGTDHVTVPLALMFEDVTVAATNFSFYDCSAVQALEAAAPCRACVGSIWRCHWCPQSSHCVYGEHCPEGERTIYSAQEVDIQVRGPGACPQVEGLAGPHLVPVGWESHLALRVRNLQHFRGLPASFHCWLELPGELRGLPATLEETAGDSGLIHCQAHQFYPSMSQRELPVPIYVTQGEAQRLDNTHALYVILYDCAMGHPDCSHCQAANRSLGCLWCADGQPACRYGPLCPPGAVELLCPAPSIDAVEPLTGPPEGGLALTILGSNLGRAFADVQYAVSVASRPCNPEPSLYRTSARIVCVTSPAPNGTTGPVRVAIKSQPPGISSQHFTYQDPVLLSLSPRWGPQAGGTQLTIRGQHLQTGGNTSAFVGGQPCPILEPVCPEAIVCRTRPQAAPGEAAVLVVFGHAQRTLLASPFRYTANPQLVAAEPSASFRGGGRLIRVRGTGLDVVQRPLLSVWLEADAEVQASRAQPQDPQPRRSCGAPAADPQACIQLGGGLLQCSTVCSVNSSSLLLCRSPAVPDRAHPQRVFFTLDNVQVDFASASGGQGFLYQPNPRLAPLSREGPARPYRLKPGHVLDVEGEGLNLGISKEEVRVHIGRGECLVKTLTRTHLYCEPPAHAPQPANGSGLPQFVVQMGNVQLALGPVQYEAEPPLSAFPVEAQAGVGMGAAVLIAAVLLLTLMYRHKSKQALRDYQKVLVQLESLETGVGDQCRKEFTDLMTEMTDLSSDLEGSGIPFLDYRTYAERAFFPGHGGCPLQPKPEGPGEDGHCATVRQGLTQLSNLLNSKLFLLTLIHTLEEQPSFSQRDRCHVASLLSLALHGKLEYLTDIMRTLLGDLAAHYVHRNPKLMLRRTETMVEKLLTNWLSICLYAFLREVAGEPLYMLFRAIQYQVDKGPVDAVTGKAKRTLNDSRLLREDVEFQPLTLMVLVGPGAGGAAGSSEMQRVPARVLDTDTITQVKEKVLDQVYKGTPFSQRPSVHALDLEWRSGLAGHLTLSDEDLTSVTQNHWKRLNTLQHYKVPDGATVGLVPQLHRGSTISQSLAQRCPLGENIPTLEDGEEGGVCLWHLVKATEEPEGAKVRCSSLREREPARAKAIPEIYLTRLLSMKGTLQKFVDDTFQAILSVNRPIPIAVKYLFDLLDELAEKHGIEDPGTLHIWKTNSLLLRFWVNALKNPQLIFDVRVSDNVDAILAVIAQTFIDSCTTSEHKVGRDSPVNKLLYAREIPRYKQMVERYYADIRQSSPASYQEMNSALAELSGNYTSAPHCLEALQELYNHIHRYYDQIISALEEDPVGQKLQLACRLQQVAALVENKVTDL

B1: mouse AP-Sema3E-6xHis (ligand, UniProt P70275 26-775)
chain: ANPSYPRLRLSHKELLELNRTSIFQSPLGFLDLHTMLLDEYQERLFVGGRDLVYSLNLERVSDGYREIYWPSTAVKVEECIMKGKDANECANYIRVLHHYNRTHLLTCATGAFDPHCAFIRVGHHSEEPLFHLESHRSERGRGRCPFDPNSSFVSTLVGNELFAGLYSDYWGRDSAIFRSMGKLGHIRTEHDDERLLKEPKFVGSYMIPDNEDRDDNKMYFFFTEKALEAENNAHTIYTRVGRLCVNDMGGQRILVNKWSTFLKARLVCSVPGMNGIDTYFDELEDVFLLPTRDPKNPVIFGLFNTTSNIFRGHAVCVYHMSSIREAFNGPYAHKEGPEYHWSLYEGKVPYPRPGSCASKVNGGKYGTTKDYPDDAIRFARMHPLMYQPIKPVHKKPILVKTDGKYNLRQLAVDRVEAEDGQYDVLFIGTDTGIVLKVITIYNQETEWMEEVILEELQIFKDPAPIISMEISSKRQQLYIGSASAVAQVRFHHCDMYGSACADCCLARDPYCAWDGISCSRYYPTGAHAKRRFRRQDVRHGNAAQQCFGQQFVGDALDRTEERLAYGIESNSTLLECTPRSLQAKVIWFVQKGRDVRKEEVKTDDRVVKMDLGLLFLRVRKSDAGTYFCQTVEHNFVHTVRKITLEVVEEHKVEGMFHKDHEEERHHKMPCPPLSGMSQGTKPWYKEFLQLIGYSNFQRVEEYCEKVWCTDKKRKKLKMSPSKWKYANPQEKRLRSKAEHFRLPRHTLLS

How the values were obtained:
FLAG-GIPC1 = molecular target: T1, FLAG-GIPC1; assay: co-IP; HEK293T cells transfected with Flag-GIPC1 and/or VSV-tagged plexins; lysates 2 days after transfection immunoprecipitated with ANTI-FLAG M2 Affinity Gel or VSV-G tag antibody agarose, western blot; interaction said to be ligand-independent
[1] = molecular target: VSV-Plexin-D1 on COS7 cells (human) (UniProt Q9Y4D7); assay: binding of an alkaline phosphatase-tagged ligand to transfected cells; AP-Sema3E (conditioned medium of HEK293T cells) on transfected COS7 cells, conventional methods (ref. 16)

| Molecule | binding (FLAG-GIPC1) | binding [1] |
| --- | --- | --- |
| VSV-PlexinB1 (from UniProt O43157 20-2135) (receptor) | no binding | – |
| VSV-PlexinB2 (from UniProt O15031 20-1838) (receptor) | no binding | – |
| VSV-PlexinB3 (from UniProt Q9ULL4 45-1909) (receptor) | no binding | – |
| B1 | – | binds |

— paper PMC5322531
